Reference: the supplement of paper PMC8728848
Some of the results follow.

Tests used:
Assay in all cases: glycan array binding signal (z-score within array); higher = stronger binding
Conditions in all cases: glycan notation: IUPAC condensed, linker removed
GlcNAc(b1-3)Gal(b1-4)Glc = target: GlcNAc(b1-3)Gal(b1-4)Glc
How it was run: (§1)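 Columns mapping to the same glycan were averaged after glycan names were converted to IUPAC-condensed notation. The data come from 3228 arrays in the Consortium for Functional Glycomics database, limited to those with an available protein sequence. Binding is reported as a within-array Z-score averaged across arrays of one protein sequence and across linkers.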

[1] = target: GlcNAc(b1-3)Gal(b1-4)GlcNAc
How it was run: as §1

[2] = target: GlcNAc(b1-3)Gal(b1-4)GlcNAc(b1-3)Gal(b1-4)GlcNAc
How it was run: as §1

GlcNAc(b1-3)GalNAc = target: GlcNAc(b1-3)GalNAc
How it was run: as §1

GlcNAc(b1-3)Man = target: GlcNAc(b1-3)Man
How it was run: as §1

[3] = target: GlcNAc(b1-3)[GlcNAc(b1-4)][GlcNAc(b1-6)]GlcNAc
How it was run: as §1

[4] = target: GlcNAc(b1-3)[GlcNAc(b1-6)]Gal(b1-4)GlcNAc
How it was run: as §1

[5] = target: GlcNAc(b1-3)[GlcNAc(b1-6)]GalNAc
How it was run: as §1

[6] = target: GlcNAc(b1-4)Gal(b1-4)GlcNAc
How it was run: as §1

GlcNAc(b1-4)GlcNAc = target: GlcNAc(b1-4)GlcNAc
How it was run: as §1

[7] = target: GlcNAc(b1-4)GlcNAc(b1-4)GlcNAc
How it was run: as §1

[8] = target: GlcNAc(b1-4)GlcNAc(b1-4)GlcNAc(b1-4)GlcNAc(b1-4)GlcNAc
How it was run: as §1

[9] = target: GlcNAc(b1-4)GlcNAc(b1-4)GlcNAc(b1-4)GlcNAc(b1-4)GlcNAc(b1-4)GlcNAc
How it was run: as §1

[10] = target: GlcNAc(b1-4)[GlcNAc(b1-6)]GalNAc
How it was run: as §1

[11] = target: GlcNAc(b1-6)Gal(b1-4)GlcNAc
How it was run: as §1

GlcNAc(b1-6)GalNAc = target: GlcNAc(b1-6)GalNAc
How it was run: as §1

GlcNAc3Prop(b1-4)GlcNAc = target: GlcNAc3Prop(b1-4)GlcNAc
How it was run: as §1

[12] = target: GlcNAc6S(b1-3)Gal(b1-4)GlcNAc
How it was run: as §1

Kdn(a2-3)Gal(b1-3)GalNAc = target: Kdn(a2-3)Gal(b1-3)GalNAc
How it was run: as §1

Kdn(a2-3)Gal(b1-3)GlcNAc = target: Kdn(a2-3)Gal(b1-3)GlcNAc
How it was run: as §1

Kdn(a2-3)Gal(b1-4)Glc = target: Kdn(a2-3)Gal(b1-4)Glc
How it was run: as §1

Kdn(a2-3)Gal(b1-4)GlcNAc = target: Kdn(a2-3)Gal(b1-4)GlcNAc
How it was run: as §1

[13] = target: Kdn(a2-3)Gal(b1-4)[Fuc(a1-3)]GlcNAc
How it was run: as §1

Kdn(a2-6)Gal(b1-4)GlcNAc = target: Kdn(a2-6)Gal(b1-4)GlcNAc
How it was run: as §1

[14] = target: Man(a1-2)Man(a1-2)Man(a1-3)Man
How it was run: as §1

[15] = target: Man(a1-2)Man(a1-2)Man(a1-6)[Man(a1-3)]Man
How it was run: as §1

Man(a1-2)Man(a1-3)Man = target: Man(a1-2)Man(a1-3)Man
How it was run: as §1

[16] = target: Man(a1-2)Man(a1-3)[Man(a1-2)Man(a1-6)]Man
How it was run: as §1

[17] = target: Man(a1-2)Man(a1-3)[Man(a1-2)Man(a1-6)]Man(a1-6)[Man(a1-2)Man(a1-2)Man(a1-3)]Man
How it was run: as §1

[18] = target: Man(a1-2)Man(a1-3)[Man(a1-2)Man(a1-6)]Man(a1-6)[Man(a1-2)Man(a1-2)Man(a1-3)]Man(b1-4)GlcNAc(b1-4)GlcNAc
How it was run: as §1

[19] = target: Man(a1-2)Man(a1-3)[Man(a1-6)]Man(a1-6)[Man(a1-2)Man(a1-3)]Man(b1-4)GlcNAc(b1-4)GlcNAc
How it was run: as §1

[20] = target: Man(a1-2)Man(a1-6)[Man(a1-3)]Man(a1-6)[Man(a1-2)Man(a1-2)Man(a1-3)]Man
How it was run: as §1

B1: CD72 ectodomain (Homo sapiens), P21854 (protein)
chain: RYLQVSQQLQQTNRVLEVTNSSLRQQLRLKITQLGQSAEDLQGSRRELAQSQEALQVEQRAHQAAEGQLQACQADRQKTKETLQSEEQQRRALEQKLSNMENRLKPFFTCGSADTCCPSGWIMHQKSCFYISLTSKNWQESQKQCETLSSKLATFSEIYPQSHSYYFLNSLLPNGGSGNSYWTGLSSNKDWKLTDDTQRTRTYAQSSKCNKVHKTWSWWTLESESCRSSLPYICEMTAFRFPD
glycan array binding signal (z-score) (GlcNAc(b1-3)Gal(b1-4)Glc): 0.153 | glycan array binding signal (z-score) [1]: -0.621 | glycan array binding signal (z-score) [2]: -0.117 | glycan array binding signal (z-score) (GlcNAc(b1-3)GalNAc): -0.636 | glycan array binding signal (z-score) (GlcNAc(b1-3)Man): -0.733 | glycan array binding signal (z-score) [3]: -0.114 | glycan array binding signal (z-score) [4]: 0.334 | glycan array binding signal (z-score) [5]: 1.43 | glycan array binding signal (z-score) [6]: 0.822 | glycan array binding signal (z-score) (GlcNAc(b1-4)GlcNAc): -1.49 | glycan array binding signal (z-score) [7]: 0.82 | glycan array binding signal (z-score) [8]: -1.05 | glycan array binding signal (z-score) [9]: -1.39 | glycan array binding signal (z-score) [10]: -0.218 | glycan array binding signal (z-score) [11]: -2.03 | glycan array binding signal (z-score) (GlcNAc(b1-6)GalNAc): -1.62 | glycan array binding signal (z-score) (GlcNAc3Prop(b1-4)GlcNAc): 1.19 | glycan array binding signal (z-score) [12]: 1.18 | glycan array binding signal (z-score) (Kdn(a2-3)Gal(b1-3)GalNAc): 0.274 | glycan array binding signal (z-score) (Kdn(a2-3)Gal(b1-3)GlcNAc): -1.25 | glycan array binding signal (z-score) (Kdn(a2-3)Gal(b1-4)Glc): 0.178 | glycan array binding signal (z-score) (Kdn(a2-3)Gal(b1-4)GlcNAc): 0.726 | glycan array binding signal (z-score) [13]: 0.379 | glycan array binding signal (z-score) (Kdn(a2-6)Gal(b1-4)GlcNAc): -0.951 | glycan array binding signal (z-score) [14]: -0.412 | glycan array binding signal (z-score) [15]: 1.23 | glycan array binding signal (z-score) (Man(a1-2)Man(a1-3)Man): 0.192 | glycan array binding signal (z-score) [16]: -0.653 | glycan array binding signal (z-score) [17]: 1.27 | glycan array binding signal (z-score) [18]: -0.865 | glycan array binding signal (z-score) [19]: 1.27 | glycan array binding signal (z-score) [20]: -0.32
